We go through three substances from doi:10.1101/754457.

By UniProt entry, the sequences of proteins in these tests, tags left out. Where a name states a change or a piece, a line headed by the entry shows the natural chain unless it says otherwise.
UniProt Q9USP7: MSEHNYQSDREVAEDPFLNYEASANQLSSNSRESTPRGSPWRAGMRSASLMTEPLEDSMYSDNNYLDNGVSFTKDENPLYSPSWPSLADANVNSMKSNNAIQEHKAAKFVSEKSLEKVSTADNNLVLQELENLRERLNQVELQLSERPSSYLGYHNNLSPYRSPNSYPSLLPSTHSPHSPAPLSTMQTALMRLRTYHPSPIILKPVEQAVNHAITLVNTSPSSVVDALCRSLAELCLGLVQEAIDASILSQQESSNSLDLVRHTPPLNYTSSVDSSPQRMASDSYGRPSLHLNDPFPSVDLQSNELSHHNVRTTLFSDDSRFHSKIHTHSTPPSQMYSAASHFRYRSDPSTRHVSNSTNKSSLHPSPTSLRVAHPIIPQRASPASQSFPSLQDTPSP

Results are given in words; binding and its absence hold for the method and conditions named. In cells and extracts the contact can be indirect. Binding calls can cover weak binding; strength is not graded here. Where a sequence is shown, tags or fusion partners need not be part of it.

For this assay, the target named is T1, Mto1[bonsai]-GFP (S. pombe) (UniProt O94488).
T1 sequence: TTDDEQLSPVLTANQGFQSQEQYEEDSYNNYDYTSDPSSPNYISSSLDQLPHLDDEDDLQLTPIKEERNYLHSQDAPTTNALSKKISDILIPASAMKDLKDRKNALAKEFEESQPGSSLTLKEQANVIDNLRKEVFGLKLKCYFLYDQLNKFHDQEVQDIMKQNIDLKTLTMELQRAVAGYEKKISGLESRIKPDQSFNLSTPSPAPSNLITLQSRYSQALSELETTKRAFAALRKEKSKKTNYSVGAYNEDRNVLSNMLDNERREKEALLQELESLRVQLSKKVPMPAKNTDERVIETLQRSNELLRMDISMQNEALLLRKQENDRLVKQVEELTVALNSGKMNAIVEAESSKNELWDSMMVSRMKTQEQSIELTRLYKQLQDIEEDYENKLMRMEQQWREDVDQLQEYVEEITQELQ
The assay can be described thus: co-IP.
As to “Mto2-112AA116AA (in S. pombe) (from UniProt Q9USP7)”, the binding entry was “binds”.
Under “Mto2-129AAA134AAA (in S. pombe) (from UniProt Q9USP7)” stands “binds weakly”; under “Mto2-226A230A234A (in S. pombe) (from UniProt Q9USP7)”, “no binding”.
